This test deals with Flag-PTEN (phosphatase and tensin homolog deleted on chromosome ten) (UniProt P60484). Briefly: affinity purification with mass spectrometry; 293T cells transfected with Flag-PTEN; PTEN immunoprecipitated with anti-PTEN antibody and protein A+G agarose at 4 °C; LC-MS/MS; IgG control; n = 1.

Results are given in words; binding and its absence hold for the method and conditions named. Binding seen in cells or lysates may run through a third protein. Here binding means that the protein was enriched with, or labelled near, the bait; the list need not be complete.

B1: ubiquitin-specific peptidase 22 (USP22) (enzyme, UniProt Q9UPT9 1-525)
chain: MVSRPEPEGEAMDAELAVAPPGCSHLGSFKVDNWKQNLRAIYQCFVWSGTAEARKRKAKSCICHVCGVHLNRLHSCLYCVFFGCFTKKHIHEHAKAKRHNLAIDLMYGGIYCFLCQDYIYDKDMEIIAKEEQRKAWKMQGVGEKFSTWEPTKRELELLKHNPKRRKITSNCTIGLRGLINLGNTCFMNCIVQALTHTPLLRDFFLSDRHRCEMQSPSSCLVCEMSSLFQEFYSGHRSPHIPYKLLHLVWTHARHLAGYEQQDAHEFLIAALDVLHRHCKGDDNGKKANNPNHCNCIIDQIFTGGLQSDVTCQVCHGVSTTIDPFWDISLDLPGSSTPFWPLSPGSEGNVVNGESHVSGTTTLTDCLRRFTRPEHLGSSAKIKCSGCHSYQESTKQLTMKKLPIVACFHLKRFEHSAKLRRKITTYVSFPLELDMTPFMASSKESRMNGQYQQPTDSLNNDNKYSLFAVVNHQGTLESGHYTSFIRQHKDQWFKCDDAIITKASIKDVLDSEGYLLFYHKQFLEYE
As for B1, the binding result is “binds”.

(Values after paper PMC8895442.)
